From PubChem BioAssay AID1671190 (National Center for Advancing Translational Sciences (NCATS), 2021)
Values joined by “and” are separate entries in the source; they are usually repeats but may differ in a detail not shown here. Equal values may be shown once. Screen size: about 580,000 compounds; about 6,100 (1.1%) were called active. Inconclusive means that the source gave no clear call. Such entries were picked first, then a sample of the others. The call rests on the fitted dose curve; in most records, active means well fitted inhibition curve with a large enough effect; inconclusive means small, poorly fitted or top-dose-only effect, or another doubt; inactive means no such curve, though single readings can be large or run the other way. Potencies beside an inconclusive call are fits to weak or partial responses and may not hold up.

Sequences of proteins named here, by UniProt entry; tags and fusion partners are left off.
UniProt P18054, whole entry, looked up: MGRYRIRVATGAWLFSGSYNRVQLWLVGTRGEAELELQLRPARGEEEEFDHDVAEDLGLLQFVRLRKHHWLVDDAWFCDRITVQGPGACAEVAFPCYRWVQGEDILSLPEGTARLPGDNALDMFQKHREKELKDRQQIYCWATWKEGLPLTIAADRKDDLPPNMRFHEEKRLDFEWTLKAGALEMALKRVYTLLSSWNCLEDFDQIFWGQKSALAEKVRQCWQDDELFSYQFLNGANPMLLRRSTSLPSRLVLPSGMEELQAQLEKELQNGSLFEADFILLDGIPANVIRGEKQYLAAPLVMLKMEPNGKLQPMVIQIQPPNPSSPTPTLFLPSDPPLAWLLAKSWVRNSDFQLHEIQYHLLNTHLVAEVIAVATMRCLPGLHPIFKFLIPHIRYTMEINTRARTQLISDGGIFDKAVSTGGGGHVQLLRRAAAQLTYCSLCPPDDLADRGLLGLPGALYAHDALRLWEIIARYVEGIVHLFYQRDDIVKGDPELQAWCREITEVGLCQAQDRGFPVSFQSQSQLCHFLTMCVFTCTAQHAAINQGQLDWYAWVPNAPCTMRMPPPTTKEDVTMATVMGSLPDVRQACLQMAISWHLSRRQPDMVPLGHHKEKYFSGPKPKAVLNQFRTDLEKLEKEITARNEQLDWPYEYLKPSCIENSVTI

What follows are molecules tested against Polyunsaturated fatty acid lipoxygenase ALOX12 (Homo sapiens) (UniProt P18054) (assay: Primary qHTS assay for inhibitors of human arachidonate 12S-lipoxygenase (ALOX12): Round 2). Conditions: purified 12hLO, xylenol orange hydroperoxide absorbance; series mostly up to 108 µM.
In short: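 Hydroperoxide product was detected by ferrous iron/xylenol orange as the 573 to 405 nm absorbance ratio. Arachidonic acid at 40 uM (final) was turned over for 30 min at room temperature by 150 nM human 12hLO, pH 7.0 Hepes buffer, after 15 min compound preincubation.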
Potency means the concentration at half of the fitted maximal effect.

Row | Compound | Potency
1 | Fc1ccc(CCNCc2ccc(Cl)c(Cl)c2)cc1 | inconclusive: 22.4 µM [inhibitor, partial curve]
2 | CCN(CC)C(=O)c1ccc(NC(=O)COc2ccc([N+](=O)[O-])cc2Cl)cc1 | inactive
3 | Cc1ccc(C[N+](C)(C)C)o1 | inactive
4 | COc1ccc(/C=C2\C(=O)NC(=O)N(Cc3ccccc3)C2=O)c(OC)c1OC | inconclusive: 100 µM [inhibitor, single point]
5 | COc1ccccc1CNCCc1ccc(F)cc1 | inconclusive: 0.447 µM [inhibitor, full curve, poor fit]
6 | O=C1NC(=O)C(=Cc2ccc3ccccc3c2)C(=O)N1 | inconclusive: 39.8 µM [inhibitor, partial curve, poor fit]
7 | Cc1cccc2nc(-c3ccccc3)c(-c3ccc(CN4CCC(n5c(=O)[nH]c6ccccc65)CC4)cc3)nc12 | inconclusive: 39.8 µM [inhibitor, partial curve, poor fit]
8 | O=[N+]([O-])/C=C/c1ccc(Cl)cc1 | inconclusive: 7.08 µM [inhibitor, full curve, poor fit]
9 | CC(C)(Cc1c[nH]c2ccc(Cl)cc12)NCCOc1ccccc1OCC1CC1 | inconclusive: 35.5 µM [inhibitor, single point] and inconclusive: 35.5 µM [inhibitor, partial curve, poor fit]
10 | c1cc(CNCCc2ccc3c(c2)OCO3)ccn1 | inconclusive: 2 µM [inhibitor, full curve, poor fit]
11 | CCCCn1c(O)c(C(C)=NCc2ccc3c(c2)OCO3)c(=O)[nH]c1=O | inconclusive: 100 µM [inhibitor, partial curve, poor fit]
12 | CN1CCC(N(C)CCC2CCOCC2)CC1 | inactive
13 | CCN(CC)C(=O)c1ccc(NC(=O)c2cc(-c3ccco3)nc3ccccc23)cc1 | active: 31.6 µM
15 | O=C(c1ccc(Cl)cc1)C1CCCN(Cc2cccc3ncccc23)C1 (configuration not stated) | inactive
16 | O=C(COc1ccccc1)N1CCN(Cc2c[nH]c3ccccc23)CC1 | inactive
17 | O=C1CCN(C(=O)CCCn2c(=O)oc3ccccc32)CC1 | inactive
18 | O=C1CC(N2CCC(n3c(=O)[nH]c4ccccc43)CC2)C(=O)N1c1ccc(F)cc1 (configuration not stated) | inconclusive: 39.8 µM [inhibitor, partial curve, poor fit]
19 | NC(N)=NOCCC(N)C(=O)O (configuration not stated) | inconclusive: 39.8 µM [inhibitor, partial curve, poor fit]
20 | O=C(NC1CC1)[C@H]1CN2CC[C@H]1C[C@@H]2Cn1cc(-c2ccc(-c3ccccc3)cc2)nn1 | inactive
21 | CS(=O)(=O)N1C[C@@H]2C[C@H](C1)c1ccc(NC(=O)c3ccncc3)c(=O)n1C2 | inconclusive: 50.1 µM [inhibitor, full curve]

Of the compounds above, seven contain a halogen.
Row | Compound | Potency
1 | Fc1ccc(CCNCc2ccc(Cl)c(Cl)c2)cc1 | inconclusive: 22.4 µM [inhibitor, partial curve]
2 | CCN(CC)C(=O)c1ccc(NC(=O)COc2ccc([N+](=O)[O-])cc2Cl)cc1 | inactive
5 | COc1ccccc1CNCCc1ccc(F)cc1 | inconclusive: 0.447 µM [inhibitor, full curve, poor fit]
8 | O=[N+]([O-])/C=C/c1ccc(Cl)cc1 | inconclusive: 7.08 µM [inhibitor, full curve, poor fit]
9 | CC(C)(Cc1c[nH]c2ccc(Cl)cc12)NCCOc1ccccc1OCC1CC1 | inconclusive: 35.5 µM [inhibitor, single point] and inconclusive: 35.5 µM [inhibitor, partial curve, poor fit]
15 | O=C(c1ccc(Cl)cc1)C1CCCN(Cc2cccc3ncccc23)C1 (configuration not stated) | inactive
18 | O=C1CC(N2CCC(n3c(=O)[nH]c4ccccc43)CC2)C(=O)N1c1ccc(F)cc1 (configuration not stated) | inconclusive: 39.8 µM [inhibitor, partial curve, poor fit]

Further records follow:

Row | Compound | Potency
22 | O=C(Cc1ccccc1)N1CCN(Cc2ccccn2)CC1 | inconclusive: 0.224 µM [inhibitor, full curve, poor fit]
23 | Cc1ccc(OCC(=O)Nc2ccc(Cl)cc2C(=O)c2ccccc2)cc1C | inactive
24 | CCN(CC)c1ccc(N=Cc2c(O)n(-c3ccccc3)c(=O)[nH]c2=O)cc1 | inconclusive: 89.1 µM [inhibitor, single point]
25 | CC[n+]1c(/C=C/C=C/c2ccc(N(C)C)cc2)sc2ccccc21 | inconclusive: 100 µM [inhibitor, single point]
26 | Cc1cccc(CN2CCN(C(=O)Cc3n[nH]c(=O)c4ccccc34)CC2)c1 | inactive
27 | Cc1ccc2c(n1)N(C)[C@H](CO)CCN(C1COC1)C2 | inactive
28 | Cn1c(O)c(/C=C2\N=c3ccccc3=C2CCNC(=S)NC2CC2)c(=O)n(C)c1=O | inconclusive: 31.6 µM [inhibitor, partial curve, poor fit]
29 | Cc1nccc2c1[nH]c1ccccc12 | inactive and inconclusive: 79.4 µM [inhibitor, single point]
30 | CCN1C(=O)NC(=O)/C(=C\c2cn(CC(=O)N3CCCC3)c3ccccc23)C1=O | inconclusive: 56.2 µM [inhibitor, partial curve, poor fit]
31 | C=CCOc1ccc(CNCCc2c[nH]c3ccccc23)cc1 | inconclusive: 44.7 µM [inhibitor, partial curve, poor fit]
32 | CCC(=Nc1ccc2c(c1)CCC2)c1c(O)n(-c2ccc(OC)cc2)c(=O)[nH]c1=O | inconclusive: 39.8 µM [inhibitor, partial curve, poor fit]
33 | OC12C3C4CC5C6C4C1C6C(C53)N2CCc1cccc(F)c1 (configuration not stated) | inactive
34 | Cc1ncoc1C(=O)NCC1=C(c2ccc3ccccc3c2)C[C@@H]2CC[C@H]1N2Cc1ccco1 | inconclusive: 50.1 µM [inhibitor, single point]
35 | CN1CN(c2ccccc2)C2(CCN(CCCSc3ccccc3NC(=O)/C=C/c3ccccc3)CC2)C1=O | inconclusive: 44.7 µM [inhibitor, partial curve, poor fit]
36 | CCCn1c(C)c(C(=O)NC2CCCCC2)c2cc(OC)ccc21 | inactive
37 | Cc1cc(CN2CCC3(CC2)C(=O)Nc2ccccc23)no1 | inconclusive: 7.94 µM [inhibitor, single point]
38 | COc1ccc(-c2c(C)c3ccc(OC(=O)N(C)C)cc3oc2=O)cc1 | inactive
39 | C[C@@H](N)Cn1ccc2cc(F)c(Cl)cc21 | inconclusive: 35.5 µM [inhibitor, partial curve, poor fit]
40 | Cc1nc(N)sc1CCN | inconclusive: 22.4 µM [inhibitor, partial curve, poor fit]
41 | O=C1NCN(c2ccccc2)C12CCN(C(c1cccs1)c1nnnn1C1CCCC1)CC2 (configuration not stated) | inconclusive: 112 µM [inhibitor, single point]
42 | COc1cccc2c1C(=O)c1c(O)c3c(c(O)c1C2=O)C[C@@](O)(C(=O)CO)CC3OC1CC(N2CCOC(OC)C2)C(O)C(C)O1 (some centres not stated) | inconclusive: 12.8 µM [inhibitor, partial curve, poor fit]
